No constants are given. Whether binding was seen depends on the method and setting. Some results given as binding are weak or reduced against the parent protein; the word gives no strength.
T1: 인간 TIGIT (human TIGIT on cells) (human) (UniProt Q495A1)
T1 sequence (looked up): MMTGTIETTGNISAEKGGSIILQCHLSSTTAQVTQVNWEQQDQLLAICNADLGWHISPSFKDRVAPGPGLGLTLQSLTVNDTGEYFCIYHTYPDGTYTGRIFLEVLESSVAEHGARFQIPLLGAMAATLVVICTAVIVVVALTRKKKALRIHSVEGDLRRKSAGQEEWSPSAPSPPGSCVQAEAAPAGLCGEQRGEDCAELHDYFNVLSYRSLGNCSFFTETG


Biological target: T1, 인간 TIGIT (human TIGIT on cells) (human)
Assay: flow cytometry on CD4 and CD8 T cells of anti-hCD3/28-activated human PBMC

binding | Binder
binds | chimeric-후보항체 clone 63F (antibody, V domains shown) VH: EVQLEEFGGGLVQPGGSMKLSCVASGSTFSNYWMNWVRQSPEKGLEWVAEIRLKFNNYATHYVESVIGRFTISRDDSKSSVYLQMNNLRAEDTGIYYCTMVRRNWYFDVWGAGTTVTVSS VL: QIVLTQSPAIMSAFPGEKVTLTCSASSSVSSSYLYWYQQKPRSSPKLWIYSTSNLASGVPARFSGSGSGTSYSLTISSMEAEDAASYFCHQWSSYPYTFGGGTKLEIK
binds | chimeric-후보항체 clone 58C (antibody, V domains shown) VH: EVQLQQSGPELVKPGASMKISCKASGYSFTGYIMNWVKQSHGKNLEWIGLINPYNGGSSYNQKFKGKATLTVDKSSSTAYMELLSLTSEDSAVYYCARFLRGYYAVDYWGQGTSVTVSS VL: DVVVTQTPLSLPVSFGDQVSISCRSSQSLVNSYGHTYLSWYLHKPGQSPQLLIYGISNRFSGVPDRFSGSGSGTDFTLKISTIKPEDLGMYYCLQGTHQPWTFGGGTKLEIK

From KR20220082776A
